# Screening data, single-dose tests

By UniProt entry, the sequences of proteins in these tests, tags left out. Residues count along the entry.
UniProt P9WNZ1, whole entry: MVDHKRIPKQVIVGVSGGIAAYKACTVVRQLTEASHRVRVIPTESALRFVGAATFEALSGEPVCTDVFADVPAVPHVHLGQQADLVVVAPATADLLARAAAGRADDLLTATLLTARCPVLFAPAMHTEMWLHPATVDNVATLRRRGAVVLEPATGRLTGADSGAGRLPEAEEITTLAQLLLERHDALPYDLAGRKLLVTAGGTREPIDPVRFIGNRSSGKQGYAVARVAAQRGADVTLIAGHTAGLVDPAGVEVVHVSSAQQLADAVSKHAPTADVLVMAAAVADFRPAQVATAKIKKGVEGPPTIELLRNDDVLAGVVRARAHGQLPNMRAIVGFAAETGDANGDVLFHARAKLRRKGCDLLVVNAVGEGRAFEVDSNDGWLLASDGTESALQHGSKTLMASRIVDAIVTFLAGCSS
UniProt A4I591, 1-473: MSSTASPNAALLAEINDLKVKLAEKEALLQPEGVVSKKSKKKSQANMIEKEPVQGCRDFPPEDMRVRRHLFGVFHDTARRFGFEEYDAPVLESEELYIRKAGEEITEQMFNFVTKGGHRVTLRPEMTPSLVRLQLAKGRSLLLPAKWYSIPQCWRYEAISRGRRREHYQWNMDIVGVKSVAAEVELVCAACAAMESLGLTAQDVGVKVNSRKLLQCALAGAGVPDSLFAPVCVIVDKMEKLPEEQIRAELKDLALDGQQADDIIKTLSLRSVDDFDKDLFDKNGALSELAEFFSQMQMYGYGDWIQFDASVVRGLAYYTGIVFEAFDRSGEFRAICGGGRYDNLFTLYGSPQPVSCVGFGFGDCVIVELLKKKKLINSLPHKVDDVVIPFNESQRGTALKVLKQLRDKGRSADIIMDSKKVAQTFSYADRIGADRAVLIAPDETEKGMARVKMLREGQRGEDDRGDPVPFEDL

The values are deposited in ChEMBL (CHEMBL3988442, “University of Dundee, Small-Polar-MMV Screening Library” (2021)).

CoaBC: 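Enzyme assay of CoaBC with a phosphate dye (Biomol Green) read at 650 nm. Target: Coenzyme A biosynthesis protein CoaBC, Mycobacterium tuberculosis (UniProt P9WNZ1). Tested at 30 µM. Direction is inferred from only a few compounds that gave an IC50; most scored high, so higher reads as stronger inhibition. Most strong results did not repeat in a second test. Size under these conditions: about 67,000 compounds, about 40 of them at 50% or above in at least one test.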
LiHisRS: 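Histidine-tRNA ligase, Leishmania infantum (UniProt A4I591). Enzyme assay of histidyl-tRNA synthetase; the read-out is not stated. Concentration: 30 µM. Higher reads as stronger inhibition (inferred: compounds with an IC50 in retests scored well above the rest). The assay is labelled LdHisRS but filed under L. infantum. Size under these conditions: about 69,000 compounds, about 410 of them at 50% or above in at least one test.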
Leishmania in macrophages: 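Cell assay of Leishmania donovani living inside macrophages; the read-out is not stated. Concentration: 30 µM. The record gives no direction; compounds that gave an IC50 in retests scored well above the rest, so higher reads as stronger inhibition. About 69,000 compounds were tested under these conditions; 1.5% (about 1,000) showed 50% or more at least once.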

Each number is a percent effect as filed. The controls that fix the scale are not given in the record; negative values are as filed. Compounds were drawn at random from those tested, without regard to their results. Two or more numbers in one place are separate tests of the same structure; such repeats can differ widely.

Result for O=C(O)C(F)(F)F.O=C(O)C(F)(F)F.[H][C@@]12CN(Cc3ccsc3)CCO[C@]1([H])CN(c1ccc(C)nn1)C2 was Leishmania in macrophages: 11.85%. With CN(CCc1ccccn1)C(=O)CCC1CCCN(S(C)(=O)=O)C1 (centres unmarked) the screen gave CoaBC: 1.062%; LiHisRS: -2.655%; Leishmania in macrophages: 44.43%. With COCCN1C[C@@H]2OCCN(c3ccnc(N(C)C)n3)[C@@H]2C1 the screen gave CoaBC: 3.716%; LiHisRS: 13.83%. Result for CC[C@H]1CN2CC[C@H]1C[C@@H]2CNCc1ccc(OC(F)(F)F)cc1 was CoaBC: -9.707%; LiHisRS: 36.11%. For COCC(=O)N1CCCn2c(CN3CCCC3)nnc2C1 the result was CoaBC: 8.562%; LiHisRS: 5.319%; Leishmania in macrophages: 44.76%.

CC(=O)N(Cc1ncc(C)o1)C1CCN(Cc2ccon2)C1 (centres unmarked) read CoaBC: 2.35%; LiHisRS: 16.81%; Leishmania in macrophages: -10.48%. CN(C)C(=O)c1cnc2n1CCN(Cc1cccnc1)C2 gave CoaBC: 4%; LiHisRS: 2%. Result for O=C(O)C(F)(F)F.[H][C@@]12CC(=O)N(CCN(C)C)[C@@]1([H])CCN2S(=O)(=O)c1ccccc1 was Leishmania in macrophages: 3.438%. CCn1nc(C)c2ncnc(N(C)Cc3ccco3)c21 read CoaBC: 0.3797%; LiHisRS: 2.5%; Leishmania in macrophages: -2.27%. CCN(Cc1noc(C2CCC2)n1)C(=O)c1cnc2ccccc2c1 read CoaBC: -0.4959%; LiHisRS: 0%; Leishmania in macrophages: -24.24%.

Result for COc1cc(CNc2nncs2)cc(OC)c1OC was CoaBC: 5.38%; LiHisRS: 16.88%; Leishmania in macrophages: 6.143%. Result for CNC(=O)CN(C(=O)c1ccc(SC)o1)c1cccc(F)c1 was CoaBC: 0.2358%; LiHisRS: 7.692%; Leishmania in macrophages: -18.23%. For COc1ccc(CC(=O)N2CCN(C)c3ncccc3C2)cc1 the result was CoaBC: -4.731%; LiHisRS: 17.81%. CC(C)c1nc(C2CCCN(C(=O)CCn3ccccc3=O)C2)no1 (centres unmarked) read CoaBC: 8.929%; LiHisRS: 16.36%; Leishmania in macrophages: -5.515%. Result for Cc1cccc(CN2CCCC3(CCN(CC(=O)N(C)C)C3=O)C2)n1 (centres unmarked) was CoaBC: 1.854%; LiHisRS: -3%.

With Cc1n[nH]c(C)c1CNCC(O)c1cccc(Cl)c1 (centres unmarked) the screen gave CoaBC: 9.524%; LiHisRS: 13.39%. Result for CC(C)(C)CNC(=O)c1ccc(C(=O)O)nc1 was CoaBC: -15.36%; LiHisRS: 7.865%; Leishmania in macrophages: 60.75%. Cc1nc2c(c(N3CCC(O)(CN4CCCC4)CC3)n1)CCN(C)CC2 gave CoaBC: 6.394%; LiHisRS: 18.03%; Leishmania in macrophages: 15.26%. Cc1cc(C(=O)NCC2OCCc3cn(CC4CC4)nc32)c(C)[nH]1 (centres unmarked) read CoaBC: 3.758%; LiHisRS: 36.54%; Leishmania in macrophages: 12.36%. Cc1cc(N2CCN(C(=O)Cc3ccc4c(c3)OCO4)CC2)cc(C)n1 gave CoaBC: 3.415%; LiHisRS: 19.2%; Leishmania in macrophages: 24.64%.

Cc1cccnc1NC(=O)C1CCN(C(=O)C(C)C)CC1 gave CoaBC: 2.288%; LiHisRS: 21.13%; Leishmania in macrophages: 19.21%. Result for CCCN(C(=O)c1cccnc1)c1nc2c(s1)CCc1c-2cnn1C was CoaBC: 4.358%; LiHisRS: 101%; Leishmania in macrophages: -47.51% & -44.82%. CN(C)CCCN(CCC#N)C(=O)Nc1ccc2[nH]ccc2c1 read CoaBC: -13.2%; LiHisRS: 15.38%; Leishmania in macrophages: 30.55%. Result for CCC[C@H]1CN(Cc2cc(C#N)n(C)c2C)C[C@@H]1NS(=O)(=O)CC was CoaBC: -12.13%; LiHisRS: 4%; Leishmania in macrophages: 15.14%. CC(C)NC(=O)c1cc2c([nH]c1=O)CC(c1cccs1)CC2=O (centres unmarked) gave CoaBC: -1.499%; LiHisRS: 0%; Leishmania in macrophages: 19.43%.

Result for [H][C@@]12OCCN(C(=O)COC)[C@@]1([H])CC[C@H]2OC was Leishmania in macrophages: 0.922%. c1ccc(-c2nccc(N3CCc4c(ncn4C4CC4)C3)n2)cc1 read CoaBC: -3.099%; LiHisRS: 5.479%; Leishmania in macrophages: 0.664%. With O=C(O)C(F)(F)F.O=C(O)C(F)(F)F.[H][C@@]12CCN(C3CCC3)C[C@]1(C(=O)NCCc1ccccn1)CCO2 the screen gave Leishmania in macrophages: 8.996%. For COCCN(C)Cc1ccc(OC)c(OC(F)F)c1 the result was CoaBC: 3.636%; LiHisRS: -0.9434%; Leishmania in macrophages: 7.354%. Result for [H][C@@]12CCN(C(=O)c3ccncc3)C[C@@]1([H])O[C@@H](C)C2 was Leishmania in macrophages: 19.43%.

Cn1ccnc1SCCNC(=O)c1c[nH]nc1C1CCCCC1 read CoaBC: 2.927%; LiHisRS: 20%; Leishmania in macrophages: -76.67%. Cc1nc(CN2CCCC(N(C)Cc3cnn(C)c3)C2)no1 (centres unmarked) gave CoaBC: 1.408%; LiHisRS: 17.28%; Leishmania in macrophages: 45.07%. Result for Cc1cc(CN(C)C(=O)C(c2ccccc2F)N(C)C)ccn1 (centres unmarked) was CoaBC: 14.07%; LiHisRS: 13.11%; Leishmania in macrophages: 28.74%. For NCc1cnn(-c2ccccc2C(=O)NCc2ccccc2Cl)c1 the result was CoaBC: 3.098%; LiHisRS: 8%; Leishmania in macrophages: -1.386%. Cc1cn2c(=O)c(-c3ccnc(NC4CCOCC4)n3)cnc2s1 gave CoaBC: -0.1205%; LiHisRS: 20%; Leishmania in macrophages: -5.048% & -1.546%.

For CS(=O)(=O)NCc1cnc2n1CCN(Cc1ccsc1)CC2.O=C(O)C(F)(F)F the result was Leishmania in macrophages: -6.571%. Result for COc1ccc(CCCNCc2c(C)nn(C)c2N(C)C)cc1OC was CoaBC: 5.471%; LiHisRS: 14.91%; Leishmania in macrophages: -2.653%. Result for COc1cc(C2CC(=O)NCc3nc4sccn4c32)cc(OC)c1O (centres unmarked) was CoaBC: 1.615%; LiHisRS: 14.17%; Leishmania in macrophages: -37.51%.

For reference, 5 entries once more:

| structure | CoaBC | LiHisRS | Leishmania in macrophages |
|---|---|---|---|
| `Cc1nc(CN2CCCC(N(C)Cc3cnn(C)c3)C2)no1` (centres unmarked) | 1.408% | 17.28% | 45.07% |
| `c1ccc(-c2nccc(N3CCc4c(ncn4C4CC4)C3)n2)cc1` | -3.099% | 5.479% | 0.664% |
| `COc1cc(CNc2nncs2)cc(OC)c1OC` | 5.38% | 16.88% | 6.143% |
| `Cc1cc(CN(C)C(=O)C(c2ccccc2F)N(C)C)ccn1` (centres unmarked) | 14.07% | 13.11% | 28.74% |
| `NCc1cnn(-c2ccccc2C(=O)NCc2ccccc2Cl)c1` | 3.098% | 8% | -1.386% |